Test results taken from US20200360469A1.
No constants are given. Whether binding was seen depends on the method and setting. Binding seen in cells or lysates may run through a third protein. Some results given as binding are weak or reduced against the parent protein; the word gives no strength.

Chains of the proteins cited; added tags and fusions are not shown. Residues count along the entry.
UniProt P15056, residues 2-766: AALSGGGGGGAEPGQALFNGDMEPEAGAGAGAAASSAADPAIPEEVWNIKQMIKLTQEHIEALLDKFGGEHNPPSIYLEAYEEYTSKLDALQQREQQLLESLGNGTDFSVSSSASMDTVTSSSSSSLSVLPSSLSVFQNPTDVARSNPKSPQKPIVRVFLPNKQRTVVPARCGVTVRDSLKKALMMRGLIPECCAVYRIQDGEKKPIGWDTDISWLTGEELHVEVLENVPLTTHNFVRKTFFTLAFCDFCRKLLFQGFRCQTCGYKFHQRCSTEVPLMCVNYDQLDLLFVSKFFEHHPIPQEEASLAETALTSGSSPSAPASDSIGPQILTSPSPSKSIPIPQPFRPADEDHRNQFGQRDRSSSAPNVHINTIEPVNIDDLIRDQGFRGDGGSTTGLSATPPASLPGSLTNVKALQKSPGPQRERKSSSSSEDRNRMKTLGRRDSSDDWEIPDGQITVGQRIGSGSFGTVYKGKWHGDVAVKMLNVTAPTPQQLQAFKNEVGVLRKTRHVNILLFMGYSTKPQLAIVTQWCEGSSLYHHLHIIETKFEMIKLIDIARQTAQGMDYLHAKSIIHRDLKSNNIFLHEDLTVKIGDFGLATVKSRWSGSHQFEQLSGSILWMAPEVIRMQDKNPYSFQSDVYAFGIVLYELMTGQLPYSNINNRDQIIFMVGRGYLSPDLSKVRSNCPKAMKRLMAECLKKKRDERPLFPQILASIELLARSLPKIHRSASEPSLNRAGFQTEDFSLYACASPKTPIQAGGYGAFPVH

Target: full-length (FL) BRAF^WT, 6x-HIS-BRAF-WT/FLAG (human) (UniProt P15056)
Experiment: co-immunoprecipitation of V5-tagged BRAF with FLAG-tagged BRAF, with or without 50 µM braftide

binding: binds
Binder: TRHVNILLFM [braftide]
